Data on one substance can be found in publication PMC10313121.

By UniProt entry, the sequences of proteins in these tests, tags left out. Where a name states a change or a piece, a line headed by the entry shows the natural chain unless it says otherwise.
UniProt Q13153: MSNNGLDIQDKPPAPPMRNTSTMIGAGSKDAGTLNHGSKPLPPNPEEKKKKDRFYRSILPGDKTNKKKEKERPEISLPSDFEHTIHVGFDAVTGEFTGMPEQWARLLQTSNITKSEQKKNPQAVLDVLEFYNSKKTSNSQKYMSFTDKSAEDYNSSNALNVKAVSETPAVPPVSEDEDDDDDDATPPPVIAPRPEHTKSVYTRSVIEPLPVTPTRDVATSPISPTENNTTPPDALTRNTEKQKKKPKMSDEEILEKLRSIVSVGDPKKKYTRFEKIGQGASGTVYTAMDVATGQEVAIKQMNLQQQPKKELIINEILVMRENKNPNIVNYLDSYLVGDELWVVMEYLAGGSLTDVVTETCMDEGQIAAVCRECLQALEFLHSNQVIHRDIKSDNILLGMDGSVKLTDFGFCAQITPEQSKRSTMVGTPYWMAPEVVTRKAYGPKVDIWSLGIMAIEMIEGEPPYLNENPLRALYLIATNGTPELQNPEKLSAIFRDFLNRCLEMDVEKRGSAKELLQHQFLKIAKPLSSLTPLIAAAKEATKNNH
UniProt P60953: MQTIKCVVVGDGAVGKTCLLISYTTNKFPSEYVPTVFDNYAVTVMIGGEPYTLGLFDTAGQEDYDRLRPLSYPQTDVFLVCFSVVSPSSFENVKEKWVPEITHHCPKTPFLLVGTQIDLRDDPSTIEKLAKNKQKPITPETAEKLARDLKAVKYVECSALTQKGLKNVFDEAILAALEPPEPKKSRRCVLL

In the experiment the target is GST-p21-binding domain of PAK1 (UniProt Q13153). Put plainly: pull-down; GST-p21-binding domain of PAK1 on glutathione-Sepharose incubated with lysates of PMA-differentiated adherent THP-1 macrophages treated with EHop-016 (0-4000 nM) or MBQ-167 (0-500 nM) for 24 hrs; pulldowns Western blotted with a pan Rac (1-3) or Cdc42 antibody; only the target purified.

Results are given in words; binding and its absence hold for the method and conditions named. Binding seen in cells or lysates may run through a third protein. Binding calls can cover weak binding; strength is not graded here.

On to “Cdc42 (active, GTP bound) (from UniProt P60953 1-191)”, for which the binding entry is “binds”.
